These results are taken from the supplement of paper PMC3334620.

The full ranking holds about 33,000 sequences; the median of “E-score (-0.5 to 0.5)” is about -8e-05, and the highest 2% start at about 0.23. The list shows a part of the results.

The assay deals with T1, Nrg2 (UniProt P38082).
T1 sequence: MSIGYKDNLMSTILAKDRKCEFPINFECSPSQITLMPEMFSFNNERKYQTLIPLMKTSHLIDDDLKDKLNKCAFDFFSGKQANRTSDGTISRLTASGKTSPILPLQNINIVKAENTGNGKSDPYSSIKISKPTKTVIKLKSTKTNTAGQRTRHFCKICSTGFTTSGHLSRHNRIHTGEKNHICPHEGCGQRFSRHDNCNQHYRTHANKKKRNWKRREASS
The assay can be described thus: PBM E-score (8-mer binding enrichment) (E-score (-0.5 to 0.5)); higher = stronger / more preferred TF binding. The note with it: protein concentration: 100 nM; construct: GST-full length. Summed up: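 Bound GST-tagged yeast transcription factors, applied at about 100-200 nM to double-stranded universal all-10-mer Agilent arrays, were detected with fluorescent anti-GST. Scans were normalised with masliner. A modified Wilcoxon-Mann-Whitney statistic, the E-score, was assigned to each ungapped eight-base word pooled with its reverse complement by the Universal PBM Analysis Suite.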
CTACCCAC: the “PBM E-score” value is -0.14. Then AACAACTA, with 0.0186; and TCCAGCGA, with -0.0087; and GCAACTAC, with 0.0322. Then CGAGGAGC, with -0.137; and TAGAACAA, with -0.00331.

With GTTACCGA, the “PBM E-score” value was -0.123. Under CTCTATGC stands -0.0268; under CACGACTA, -0.107. Turning to GCTAGCCA, the “PBM E-score” value was -0.196.

For CACGGGCC, the “PBM E-score” value is -0.157. Consider AGGGGCAC, for which the “PBM E-score” value is -0.111. In the case of GTCCGAAC, the “PBM E-score” value was determined as 0.0315. Under CGCGTATA stands -0.129. With CGGATTAA, the “PBM E-score” value was -0.00468. Under CCGTGGAC stands -0.0272; under CACAAACG, 0.144.

Turning to AGTTCAGG, the “PBM E-score” value is 0.0281. Under CGGGATAA stands 0.0879; under AGTGGACA, 0.0593. As to CCTTTGGC, the “PBM E-score” value is -0.0852.

In the case of ATCTAGCG, the “PBM E-score” value was -0.0817.

On to CACCTCCG, for which the “PBM E-score” value is -0.018. CGAATTTC: the “PBM E-score” value came out at 0.137. Under CACTAGAA stands -0.0145; under CCGGCGGC, -0.197; under CCACAAGA, 0.0312. CACGACAC: the “PBM E-score” value was -0.113. Then AGACACAC, with -0.0349.

As to GGATAAAA, the “PBM E-score” value came out at 0.109. Turning to ATAGCATG, the “PBM E-score” value turned out to be 0.00622.

Turning to ATGTTGTC, the “PBM E-score” value was determined as 0.124. Under CGAACCCC stands 0.197; under AGGTGCGC, -0.0417. Under CTGAACCC stands 0.218. Under CCAACGAA stands 0.0181; under GAAGTTCC, -0.0696; under GTACTCCA, -0.0188.

On to GAATTCTA, for which the “PBM E-score” value is 0.154. On to AAGTAACC, for which the “PBM E-score” value is -0.0437. Under GCGACAAC stands 0.105; under ATGCGTCA, -0.0453; under GCCTAATA, -0.00098. As to CCTCATTC, the “PBM E-score” value is -0.0122. TAGACCGA: the “PBM E-score” value is -0.0381. Turning to CTATAAAA, the “PBM E-score” value is -0.0779. Consider ATCGTATG, for which the “PBM E-score” value was 0.0645. Under CCTTCCCA stands -0.0778; under AGTGGGAT, 0.189. On to AAGACCCA, for which the “PBM E-score” value is -0.181. Then GCACACGC, with -0.0698. Then AAATAACA, with 0.166. Consider CTAATACA, for which the “PBM E-score” value worked out at 0.0806. Under GATACGGC stands -0.296; under TAATCTAA, -0.0332. Under CCAGAAGC stands -0.0649; under ATAGCCCC, -0.167. In the case of GCCAAGCA, the “PBM E-score” value was -0.0136. On to CAGATCAA, for which the “PBM E-score” value was determined as 0.046. Under CCATCAAA stands 0.0552. Under GTATCATA stands 0.251; under CTGGACTC, -0.0788. Under AAGCCTTC stands -0.183; under CGGTGAAG, -0.222; under ACGTCAGA, -0.0813. In the case of CAAGTCGC, the “PBM E-score” value was -0.0924. Then CCATCTCA, with -0.0134. Take ACCTTCAA: the “PBM E-score” value was -0.222. As for ACGAGCAC, the “PBM E-score” value was 0.0475. Under AGAAATTG stands 0.119; under GGCCTATA, -0.266; under CCATCGCA, -0.0171. Under CTACTCTC stands -0.0448; under ATACGCTC, 0.106. Under AGTGCGGC stands 0.0106; under AATTTTAG, -0.0248. CGTTGGTC: the “PBM E-score” value is -0.0935.

Turning to CCTTTCGC, the “PBM E-score” value was 0.108.

Regarding ACTCCTAT, the “PBM E-score” value was -0.134. Under CACCGTAG stands -0.0924. Then CGGGTACA, with -0.0794. As to CGCCCGCG, the “PBM E-score” value came out at 0.0878. For the sequence CTCCGGGA, the “PBM E-score” value is -0.202.

Consider AGATGCGA, for which the “PBM E-score” value turned out to be 0.143.

In the case of CCAAGAGA, the “PBM E-score” value was -0.14.

In the case of CATCTGCG, the “PBM E-score” value came out at 0.0643.
